Reference: article PMC5364497
No constants are given. Whether binding was seen depends on the method and setting. Binding seen in cells or lysates may run through a third protein. Binding can be weak; no strength is given. Values belong to the binder of their own block, whether it stands above or below them.

Biological target: paclitaxel-microtubules (human (endogenous in SKBr3))
Test: co-sedimentation; SKBr3 cytosolic extract (0.1 M MES pH 6.9, 1 mM EGTA, 1 mM MgCl2, 0.5% NP40, 1 mM DTT) with 10 uM paclitaxel 30 min at 30 °C; 80000 g, 30 min, 30 °C through a 10% sucrose cushion; supernatant and pellet by Western blot

binding: binds
B1: Sept9_i1 (endogenous) (protein, UniProt Q9UHD8 1-586)
chain: MKKSYSGGTRTSSGRLRRLGDSSGPALKRSFEVEEVETPNSTPPRRVQTPLLRATVASSTQKFQDLGVKNSEPSARHVDSLSQRSPKASLRRVELSGPKAAEPVSRRTELSIDISSKQVENAGAIGPSRFGLKRAEVLGHKTPEPAPRRTEITIVKPQESAHRRMEPPASKVPEVPTAPATDAAPKRVEIQMPKPAEAPTAPSPAQTLENSEPAPVSQLQSRLEPKPQPPVAEATPRSQEATEAAPSCVGDMADTPRDAGLKQAPASRNEKAPVDFGYVGIDSILEQMRRKAMKQGFEFNIMVVGQSGLGKSTLINTLFKSKISRKSVQPTSEERIPKTIEIKSITHDIEEKGVRMKLTVIDTPGFGDHINNENCWQPIMKFINDQYEKYLQEEVNINRKKRIPDTRVHCCLYFIPATGHSLRPLDIEFMKRLSKVVNIVPVIAKADTLTLEERVHFKQRITADLLSNGIDVYPQKEFDEDSEDRLVNEKFREMIPFAVVGSDHEYQVNGKRILGRKTKWGTIEVENTTHCEFAYLRDLLIRTHMQNIKDITSSIHFEAYRVKRLNEGSSAMANGMEEKEPEAPEM

binding: binds weakly
B2: Sept7 (endogenous) (protein, UniProt Q16181 1-437)
chain: MSVSARSAAAEERSVNSSTMVAQQKNLEGYVGFANLPNQVYRKSVKRGFEFTLMVVGESGLGKSTLINSLFLTDLYSPEYPGPSHRIKKTVQVEQSKVLIKEGGVQLLLTIVDTPGFGDAVDNSNCWQPVIDYIDSKFEDYLNAESRVNRRQMPDNRVQCCLYFIAPSGHGLKPLDIEFMKRLHEKVNIIPLIAKADTLTPEECQQFKKQIMKEIQEHKIKIYEFPETDDEEENKLVKKIKDRLPLAVVGSNTIIEVNGKRVRGRQYPWGVAEVENGEHCDFTILRNMLIRTHMQDLKDVTNNVHYENYRSRKLAAVTYNGVDNNKNKGQLTKSPLAQMEEERREHVAKMKKMEMEMEQVFEMKVKEKVQKLKDSEAELQRRHEQMKKNLEAQHKELEEKRRQFEDEKANWEAQQRILEQQNSSRTLEKNKKKGKIF

binding: binds weakly
B3: Sept2 (endogenous) (protein, UniProt Q15019 1-361)
chain: MSKQQPTQFINPETPGYVGFANLPNQVHRKSVKKGFEFTLMVVGESGLGKSTLINSLFLTDLYPERVIPGAAEKIERTVQIEASTVEIEERGVKLRLTVVDTPGYGDAINCRDCFKTIISYIDEQFERYLHDESGLNRRHIIDNRVHCCFYFISPFGHGLKPLDVAFMKAIHNKVNIVPVIAKADTLTLKERERLKKRILDEIEEHNIKIYHLPDAESDEDEDFKEQTRLLKASIPFSVVGSNQLIEAKGKKVRGRLYPWGVVEVENPEHNDFLKLRTMLITHMQDLQEVTQDLHYENFRSERLKRGGRKVENEDMNKDQILLEKEAELRRMQEMIARMQAQMQMQMQGGDGDGGALGHHV
